The structures given here were assigned with low confidence; some may be wrong.
Assays:
GluK1 = GluK1 (Rattus norvegicus, UniProt P22756); assay: Radioligand binding at recombinant homomeric GluK1 in Sf9 membranes; conditions: read-out: Ki GluK1, recombinant rat homomeric receptor, [3H]-(S)-NF608, mean ± SEM, tested form: 2 H2O
GluK2 = GluK2 (Rattus norvegicus, UniProt P42260); assay: Radioligand binding at recombinant homomeric GluK2 in Sf9 membranes; conditions: read-out: Ki GluK2, recombinant rat homomeric receptor, [3H]-kainic acid, mean ± SEM, tested form: 2 H2O
GluK3 = GluK3 (Rattus norvegicus, UniProt P42264); assay: Radioligand binding at recombinant homomeric GluK3 in Sf9 membranes; conditions: read-out: Ki GluK3, recombinant rat homomeric receptor, [3H]-kainic acid, mean ± SEM, tested form: 2 H2O
GluK5 = GluK5 (Rattus norvegicus, UniProt Q63273); assay: Radioligand binding at recombinant homomeric GluK5 in Sf9 membranes; conditions: read-out: Ki GluK5, recombinant rat homomeric receptor, [3H]-kainic acid, mean ± SEM, tested form: 2 H2O
GluA2 = GluA2 (Rattus norvegicus, UniProt P19491); assay: Radioligand binding at recombinant homomeric GluA2 in Sf9 membranes; conditions: read-out: Ki GluA2, recombinant rat homomeric receptor, [3H]-(RS)-AMPA, mean ± SEM, tested form: 2 H2O

Chains of the proteins cited; added tags and fusions are not shown. Residues count along the entry.
UniProt P22756, 31-949 limits assumed: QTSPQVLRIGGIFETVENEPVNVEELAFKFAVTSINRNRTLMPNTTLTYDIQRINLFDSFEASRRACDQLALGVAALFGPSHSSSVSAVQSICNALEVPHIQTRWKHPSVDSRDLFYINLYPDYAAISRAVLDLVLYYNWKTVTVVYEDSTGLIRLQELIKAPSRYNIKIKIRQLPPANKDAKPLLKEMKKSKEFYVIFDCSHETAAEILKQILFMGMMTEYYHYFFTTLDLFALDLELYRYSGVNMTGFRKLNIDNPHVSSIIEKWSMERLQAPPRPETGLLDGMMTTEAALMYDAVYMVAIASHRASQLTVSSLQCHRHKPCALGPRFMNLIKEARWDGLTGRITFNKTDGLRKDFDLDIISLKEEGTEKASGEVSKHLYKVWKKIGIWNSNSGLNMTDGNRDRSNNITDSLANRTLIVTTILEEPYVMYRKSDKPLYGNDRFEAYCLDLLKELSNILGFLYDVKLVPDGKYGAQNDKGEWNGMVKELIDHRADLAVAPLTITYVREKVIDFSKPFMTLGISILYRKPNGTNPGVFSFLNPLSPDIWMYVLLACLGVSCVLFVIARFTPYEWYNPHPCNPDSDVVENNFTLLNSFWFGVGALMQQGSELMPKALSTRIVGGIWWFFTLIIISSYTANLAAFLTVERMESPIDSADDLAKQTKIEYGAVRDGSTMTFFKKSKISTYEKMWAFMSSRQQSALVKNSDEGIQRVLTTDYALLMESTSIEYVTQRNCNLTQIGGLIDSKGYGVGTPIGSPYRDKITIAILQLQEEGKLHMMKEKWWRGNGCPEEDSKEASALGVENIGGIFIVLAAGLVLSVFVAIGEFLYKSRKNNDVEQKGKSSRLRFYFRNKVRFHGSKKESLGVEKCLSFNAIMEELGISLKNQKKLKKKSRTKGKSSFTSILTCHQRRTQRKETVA
UniProt P42260, 32-908 limits assumed: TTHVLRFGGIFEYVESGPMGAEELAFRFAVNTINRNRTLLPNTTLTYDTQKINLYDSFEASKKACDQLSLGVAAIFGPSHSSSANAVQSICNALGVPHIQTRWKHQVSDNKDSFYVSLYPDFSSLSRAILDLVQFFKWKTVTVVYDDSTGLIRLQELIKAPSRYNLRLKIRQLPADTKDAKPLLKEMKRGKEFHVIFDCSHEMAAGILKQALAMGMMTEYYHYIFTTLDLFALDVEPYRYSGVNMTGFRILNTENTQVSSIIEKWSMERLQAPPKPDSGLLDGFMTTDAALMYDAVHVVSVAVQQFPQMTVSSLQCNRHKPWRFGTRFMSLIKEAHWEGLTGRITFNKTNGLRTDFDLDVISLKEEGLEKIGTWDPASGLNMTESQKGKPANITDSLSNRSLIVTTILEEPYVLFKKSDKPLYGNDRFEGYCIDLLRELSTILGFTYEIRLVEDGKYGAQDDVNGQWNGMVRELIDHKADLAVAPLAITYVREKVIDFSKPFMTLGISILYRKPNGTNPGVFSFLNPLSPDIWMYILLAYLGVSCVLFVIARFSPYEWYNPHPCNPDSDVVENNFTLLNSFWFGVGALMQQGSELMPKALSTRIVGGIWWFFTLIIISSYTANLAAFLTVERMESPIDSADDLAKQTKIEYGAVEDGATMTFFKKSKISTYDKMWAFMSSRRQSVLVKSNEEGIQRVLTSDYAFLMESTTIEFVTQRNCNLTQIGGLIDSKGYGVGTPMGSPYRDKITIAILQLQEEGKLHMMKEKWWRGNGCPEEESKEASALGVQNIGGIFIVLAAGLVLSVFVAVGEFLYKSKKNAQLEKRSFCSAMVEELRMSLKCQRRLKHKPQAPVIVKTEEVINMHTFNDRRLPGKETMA
UniProt P42264, 32-919 limits assumed: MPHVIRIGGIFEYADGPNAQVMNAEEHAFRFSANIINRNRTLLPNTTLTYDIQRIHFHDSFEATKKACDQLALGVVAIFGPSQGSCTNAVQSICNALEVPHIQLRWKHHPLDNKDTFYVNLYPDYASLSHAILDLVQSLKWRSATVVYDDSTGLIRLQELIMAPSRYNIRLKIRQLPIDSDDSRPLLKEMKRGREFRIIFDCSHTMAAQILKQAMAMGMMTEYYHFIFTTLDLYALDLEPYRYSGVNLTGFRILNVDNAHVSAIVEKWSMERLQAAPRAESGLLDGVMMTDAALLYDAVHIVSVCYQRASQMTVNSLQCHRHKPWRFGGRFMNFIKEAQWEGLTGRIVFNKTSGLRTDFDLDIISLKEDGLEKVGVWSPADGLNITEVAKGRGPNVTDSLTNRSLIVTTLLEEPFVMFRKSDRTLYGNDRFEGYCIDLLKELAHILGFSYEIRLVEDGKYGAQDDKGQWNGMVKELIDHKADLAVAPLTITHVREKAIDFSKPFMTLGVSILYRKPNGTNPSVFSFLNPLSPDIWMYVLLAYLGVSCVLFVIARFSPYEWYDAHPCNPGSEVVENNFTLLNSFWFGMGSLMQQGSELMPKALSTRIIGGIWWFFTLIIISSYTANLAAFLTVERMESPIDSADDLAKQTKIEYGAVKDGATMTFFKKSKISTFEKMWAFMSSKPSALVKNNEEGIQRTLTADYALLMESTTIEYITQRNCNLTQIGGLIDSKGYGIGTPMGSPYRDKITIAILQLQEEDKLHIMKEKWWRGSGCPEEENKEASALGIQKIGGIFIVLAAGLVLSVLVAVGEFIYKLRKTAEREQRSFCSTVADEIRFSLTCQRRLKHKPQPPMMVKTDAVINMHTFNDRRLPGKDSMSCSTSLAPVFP
UniProt Q63273, 15-979 limits assumed: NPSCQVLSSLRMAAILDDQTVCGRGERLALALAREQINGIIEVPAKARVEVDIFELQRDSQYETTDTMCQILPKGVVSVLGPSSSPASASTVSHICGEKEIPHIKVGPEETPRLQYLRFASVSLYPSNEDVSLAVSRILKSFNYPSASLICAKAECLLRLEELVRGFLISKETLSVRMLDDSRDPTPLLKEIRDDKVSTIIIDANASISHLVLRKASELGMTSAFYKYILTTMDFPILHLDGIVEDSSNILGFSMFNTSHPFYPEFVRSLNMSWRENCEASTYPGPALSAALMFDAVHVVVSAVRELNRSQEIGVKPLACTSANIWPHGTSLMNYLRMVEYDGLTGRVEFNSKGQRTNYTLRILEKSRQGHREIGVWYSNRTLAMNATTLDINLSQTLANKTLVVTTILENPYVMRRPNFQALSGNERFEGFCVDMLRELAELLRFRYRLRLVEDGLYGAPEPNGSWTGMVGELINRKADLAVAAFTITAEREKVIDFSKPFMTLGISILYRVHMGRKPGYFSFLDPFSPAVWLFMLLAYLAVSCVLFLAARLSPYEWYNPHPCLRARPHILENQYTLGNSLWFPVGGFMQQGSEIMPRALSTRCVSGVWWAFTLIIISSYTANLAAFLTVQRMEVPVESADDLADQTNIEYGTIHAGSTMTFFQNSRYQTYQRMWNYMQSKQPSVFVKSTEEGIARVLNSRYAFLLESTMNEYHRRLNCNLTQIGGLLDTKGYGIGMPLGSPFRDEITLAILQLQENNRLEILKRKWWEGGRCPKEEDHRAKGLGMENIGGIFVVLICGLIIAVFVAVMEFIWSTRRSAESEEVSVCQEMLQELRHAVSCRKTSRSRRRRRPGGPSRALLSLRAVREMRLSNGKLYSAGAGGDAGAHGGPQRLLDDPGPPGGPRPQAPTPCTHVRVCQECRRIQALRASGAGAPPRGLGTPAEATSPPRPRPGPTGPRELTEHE
UniProt P19491, 22-883 limits assumed: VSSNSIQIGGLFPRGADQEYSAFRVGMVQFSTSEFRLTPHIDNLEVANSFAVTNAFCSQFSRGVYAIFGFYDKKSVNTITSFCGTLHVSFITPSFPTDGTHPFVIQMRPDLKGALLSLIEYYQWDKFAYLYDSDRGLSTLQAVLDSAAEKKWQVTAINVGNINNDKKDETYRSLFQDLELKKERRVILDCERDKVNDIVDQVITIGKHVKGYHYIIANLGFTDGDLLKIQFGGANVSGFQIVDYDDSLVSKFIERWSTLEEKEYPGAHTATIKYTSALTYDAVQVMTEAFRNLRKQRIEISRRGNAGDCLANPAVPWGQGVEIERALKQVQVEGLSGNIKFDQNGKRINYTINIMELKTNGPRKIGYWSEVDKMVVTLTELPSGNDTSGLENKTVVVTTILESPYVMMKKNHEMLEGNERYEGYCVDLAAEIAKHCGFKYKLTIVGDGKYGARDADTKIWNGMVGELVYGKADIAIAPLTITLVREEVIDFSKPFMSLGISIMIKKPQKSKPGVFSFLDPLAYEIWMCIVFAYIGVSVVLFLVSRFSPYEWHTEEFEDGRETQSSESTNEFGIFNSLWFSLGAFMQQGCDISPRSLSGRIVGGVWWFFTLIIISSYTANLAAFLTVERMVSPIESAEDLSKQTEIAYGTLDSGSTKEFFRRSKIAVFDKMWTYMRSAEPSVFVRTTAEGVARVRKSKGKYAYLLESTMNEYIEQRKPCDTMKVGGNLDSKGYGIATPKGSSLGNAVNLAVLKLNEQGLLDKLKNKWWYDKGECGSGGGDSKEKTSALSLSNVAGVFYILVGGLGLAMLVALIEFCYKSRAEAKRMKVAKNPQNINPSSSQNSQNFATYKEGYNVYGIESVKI

O=C(Nn1c(=O)c(=O)[nH]c2cc(C#Cc3ccc(S(=O)(=O)F)cc3)ccc21)c1ccccc1
Ki (GluK1): 1100 nM | Ki (GluK2): > 100 µM | Ki (GluK3): 8.1 µM | Ki (GluK5): > 100 µM | Ki (GluA2): 100 µM

— article PMC9369419 (International Journal of Molecular Sciences, 2022)
